This note sets out measurements from publication PMC6258673.

Chains of the proteins cited; added tags and fusions are not shown.
UniProt Q13263: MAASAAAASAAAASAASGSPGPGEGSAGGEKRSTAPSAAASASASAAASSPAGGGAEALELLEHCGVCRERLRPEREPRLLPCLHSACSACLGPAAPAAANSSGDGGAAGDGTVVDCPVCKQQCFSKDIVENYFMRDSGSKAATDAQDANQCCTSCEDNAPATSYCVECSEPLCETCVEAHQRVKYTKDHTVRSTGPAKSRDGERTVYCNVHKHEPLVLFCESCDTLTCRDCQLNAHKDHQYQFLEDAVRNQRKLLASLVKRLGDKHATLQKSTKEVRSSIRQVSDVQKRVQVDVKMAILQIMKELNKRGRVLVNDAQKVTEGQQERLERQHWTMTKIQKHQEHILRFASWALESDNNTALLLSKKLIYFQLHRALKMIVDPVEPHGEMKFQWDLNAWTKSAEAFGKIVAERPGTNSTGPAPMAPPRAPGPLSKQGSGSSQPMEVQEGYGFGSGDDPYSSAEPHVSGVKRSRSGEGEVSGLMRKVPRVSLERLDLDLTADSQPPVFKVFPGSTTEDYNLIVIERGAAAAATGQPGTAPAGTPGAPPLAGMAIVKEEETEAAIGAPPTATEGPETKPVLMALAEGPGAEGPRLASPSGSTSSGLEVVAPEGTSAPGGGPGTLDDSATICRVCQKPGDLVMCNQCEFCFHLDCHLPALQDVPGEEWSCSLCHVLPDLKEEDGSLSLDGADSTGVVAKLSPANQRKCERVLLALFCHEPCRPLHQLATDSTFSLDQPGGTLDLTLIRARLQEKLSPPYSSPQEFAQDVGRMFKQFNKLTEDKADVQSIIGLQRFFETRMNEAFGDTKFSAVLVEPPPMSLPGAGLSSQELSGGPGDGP

The target of assay [1] is T1, TRIM24-SFB (stably expressed in LNCaP cells) (UniProt O15164).
T1 sequence: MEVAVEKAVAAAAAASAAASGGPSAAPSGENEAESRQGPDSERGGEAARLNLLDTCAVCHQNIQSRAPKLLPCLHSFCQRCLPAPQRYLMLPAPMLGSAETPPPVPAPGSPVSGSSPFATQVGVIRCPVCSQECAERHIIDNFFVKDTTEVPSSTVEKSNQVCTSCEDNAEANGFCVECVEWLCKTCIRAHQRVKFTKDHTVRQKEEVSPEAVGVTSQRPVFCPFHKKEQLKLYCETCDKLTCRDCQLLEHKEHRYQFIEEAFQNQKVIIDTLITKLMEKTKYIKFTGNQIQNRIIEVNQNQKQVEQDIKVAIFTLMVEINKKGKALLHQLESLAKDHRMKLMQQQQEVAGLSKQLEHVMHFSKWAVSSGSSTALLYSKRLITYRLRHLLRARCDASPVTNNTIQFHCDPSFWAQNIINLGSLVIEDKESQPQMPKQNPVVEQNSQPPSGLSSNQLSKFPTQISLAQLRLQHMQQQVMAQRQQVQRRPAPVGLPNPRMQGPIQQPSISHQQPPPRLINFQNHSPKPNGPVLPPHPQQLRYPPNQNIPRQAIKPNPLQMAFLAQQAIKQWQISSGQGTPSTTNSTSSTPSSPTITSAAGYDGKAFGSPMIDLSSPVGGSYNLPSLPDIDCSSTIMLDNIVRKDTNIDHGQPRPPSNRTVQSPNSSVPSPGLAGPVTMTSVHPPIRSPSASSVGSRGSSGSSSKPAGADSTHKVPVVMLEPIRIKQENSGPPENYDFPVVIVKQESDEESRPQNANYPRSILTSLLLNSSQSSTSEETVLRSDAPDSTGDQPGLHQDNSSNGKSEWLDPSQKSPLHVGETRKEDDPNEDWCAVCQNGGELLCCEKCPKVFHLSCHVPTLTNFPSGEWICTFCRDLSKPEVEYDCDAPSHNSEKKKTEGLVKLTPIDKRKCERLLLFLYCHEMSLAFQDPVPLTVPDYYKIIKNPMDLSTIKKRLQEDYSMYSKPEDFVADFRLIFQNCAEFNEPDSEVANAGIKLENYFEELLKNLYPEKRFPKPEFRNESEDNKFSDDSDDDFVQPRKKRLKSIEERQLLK
In words: affinity purification with mass spectrometry; tandem affinity purification of TRIM24-SFB from stably expressing LNCaP cells: NETN buffer (100 mM NaCl, 20 mM Tris-Cl pH 8.0, 1 mM EDTA, 0.5% NP-40), streptavidin beads 4 h 4 °C, biotin elution, S-protein beads overnight 4 °C, SDS-PAGE bands to mass spectrometry.

Assay [2] deals with T2, TRIM24-SFB (stably expressed in LNCaP cells), O15164.
T2 chain: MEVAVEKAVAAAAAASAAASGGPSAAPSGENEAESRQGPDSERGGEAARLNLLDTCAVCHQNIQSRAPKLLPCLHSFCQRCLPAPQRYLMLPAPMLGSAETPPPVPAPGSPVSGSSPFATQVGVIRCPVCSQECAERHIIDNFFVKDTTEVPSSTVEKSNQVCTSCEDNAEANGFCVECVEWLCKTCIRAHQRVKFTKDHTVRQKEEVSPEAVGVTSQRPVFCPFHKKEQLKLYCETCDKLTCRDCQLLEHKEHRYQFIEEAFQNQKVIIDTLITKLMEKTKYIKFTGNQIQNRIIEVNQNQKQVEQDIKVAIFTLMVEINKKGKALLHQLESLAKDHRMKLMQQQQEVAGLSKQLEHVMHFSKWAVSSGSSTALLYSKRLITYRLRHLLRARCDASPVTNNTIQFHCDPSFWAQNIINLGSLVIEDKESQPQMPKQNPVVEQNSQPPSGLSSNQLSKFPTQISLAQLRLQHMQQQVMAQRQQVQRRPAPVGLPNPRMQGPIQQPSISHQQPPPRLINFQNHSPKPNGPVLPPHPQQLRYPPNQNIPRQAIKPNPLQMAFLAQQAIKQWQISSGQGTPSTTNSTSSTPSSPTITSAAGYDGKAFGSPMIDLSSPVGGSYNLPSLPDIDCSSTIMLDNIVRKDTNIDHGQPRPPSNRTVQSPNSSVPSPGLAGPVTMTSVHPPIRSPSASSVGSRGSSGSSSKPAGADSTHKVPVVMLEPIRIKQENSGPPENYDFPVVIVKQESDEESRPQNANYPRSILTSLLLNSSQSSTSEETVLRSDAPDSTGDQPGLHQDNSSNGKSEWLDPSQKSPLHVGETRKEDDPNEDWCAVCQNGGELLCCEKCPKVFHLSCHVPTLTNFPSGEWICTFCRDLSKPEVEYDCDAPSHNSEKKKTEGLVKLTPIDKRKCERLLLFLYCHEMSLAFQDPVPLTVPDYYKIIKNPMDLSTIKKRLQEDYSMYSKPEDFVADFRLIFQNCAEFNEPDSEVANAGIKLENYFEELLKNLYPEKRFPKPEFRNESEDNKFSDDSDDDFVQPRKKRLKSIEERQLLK
Described as above. The conditions noted are these: remark: other sources report otherwise.

These are yes or no findings as the source states them, for the method shown. In cells and extracts the contact can be indirect. Here binding means that the protein was enriched with, or labelled near, the bait; the list need not be complete.

As for “endogenous TRIM28 (LNCaP cells) (from UniProt Q13263 1-835)”, in assay [1], the binding entry was “binds”.

B1: TRIM33, Q9UPN9 1-1127 (protein)
chain: MAENKGGGEAESGGGGSGSAPVTAGAAGPAAQEAEPPLTAVLVEEEEEEGGRAGAEGGAAGPDDGGVAAASSGSAQAASSPAASVGTGVAGGAVSTPAPAPASAPAPGPSAGPPPGPPASLLDTCAVCQQSLQSRREAEPKLLPCLHSFCLRCLPEPERQLSVPIPGGSNGDIQQVGVIRCPVCRQECRQIDLVDNYFVKDTSEAPSSSDEKSEQVCTSCEDNASAVGFCVECGEWLCKTCIEAHQRVKFTKDHLIRKKEDVSESVGASGQRPVFCPVHKQEQLKLFCETCDRLTCRDCQLLEHKEHRYQFLEEAFQNQKGAIENLLAKLLEKKNYVHFAATQVQNRIKEVNETNKRVEQEIKVAIFTLINEINKKGKSLLQQLENVTKERQMKLLQQQNDITGLSRQVKHVMNFTNWAIASGSSTALLYSKRLITFQLRHILKARCDPVPAANGAIRFHCDPTFWAKNVVNLGNLVIESKPAPGYTPNVVVGQVPPGTNHISKTPGQINLAQLRLQHMQQQVYAQKHQQLQQMRMQQPPAPVPTTTTTTQQHPRQAAPQMLQQQPPRLISVQTMQRGNMNCGAFQAHQMRLAQNAARIPGIPRHSGPQYSMMQPHLQRQHSNPGHAGPFPVVSVHNTTINPTSPTTATMANANRGPTSPSVTAIELIPSVTNPENLPSLPDIPPIQLEDAGSSSLDNLLSRYISGSHLPPQPTSTMNPSPGPSALSPGSSGLSNSHTPVRPPSTSSTGSRGSCGSSGRTAEKTSLSFKSDQVKVKQEPGTEDEICSFSGGVKQEKTEDGRRSACMLSSPESSLTPPLSTNLHLESELDALASLENHVKIEPADMNESCKQSGLSSLVNGKSPIRSLMHRSARIGGDGNNKDDDPNEDWCAVCQNGGDLLCCEKCPKVFHLTCHVPTLLSFPSGDWICTFCRDIGKPEVEYDCDNLQHSKKGKTAQGLSPVDQRKCERLLLYLYCHELSIEFQEPVPASIPNYYKIIKKPMDLSTVKKKLQKKHSQHYQIPDDFVADVRLIFKNCERFNEMMKVVQVYADTQEINLKADSEVAQAGKAVALYFEDKLTEIYSDRTFAPLPEFEQEEDDGEVTEDSDEDFIQPRRKRLKSDERPVHIK
Regarding B1, the binding result in assay [2] is “binds”.
